PubChem BioAssay AID1259405 | NCATS, 2018
In all, the deposit lists about 50,000 reagents; shown is an unselected part. About 4,000 of them (8%) count as active. 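Mouse siRNA library applied to hamster cells; one well for each siRNA.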 The numbers tell different reagents against one gene apart. Reagent sequences are not shown.

Aim: 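Mouse-designed siRNAs used to find CHO productivity engineering targets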 (primary screen)
Cell system: Chinese hamster CHO-K1 ovary cells with stable secreted eGFP expression
Reagents: single siRNA against mouse genes, 0.8 pmol siRNA per well (2 µl of 400 nM stock)
Time to read-out: 3 days
Read-out: 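Percent of the per-plate non-targeting control median for intracellular GFP per well by laser scanning cytometry and for cell viability by ATP luminescence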
Direction: GFP, % of control: higher = more GFP per well, higher productivity; viability (ATP), % of control: higher = more viable cells (more ATP)
Call rule: 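a knock-down is called active if GFP reaches 120% or more of non-targeting control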

| gene | siRNA no. | GFP, % of control | viability (ATP), % of control | Outcome |
| --- | --- | --- | --- | --- |
| Tcof1 (treacle ribosome biogenesis factor 1) | 1 | 52.2 | 60.9 | inactive |
| Tcof1 (treacle ribosome biogenesis factor 1) | 2 | 68.3 | 44.9 | inactive |
| Tcof1 (treacle ribosome biogenesis factor 1) | 3 | 136 | 93.8 | active |
| Zfp458 (zinc finger protein 458) | 1 | 91.6 | 77.7 | inactive |
| Zfp458 (zinc finger protein 458) | 2 | 50.6 | 85 | inactive |
| Zfp458 (zinc finger protein 458) | 3 | 80.2 | 78.7 | inactive |
| Mecom (MDS1 and EVI1 complex locus) | 1 | 104 | 60.5 | inactive |
| Mecom (MDS1 and EVI1 complex locus) | 2 | 89.9 | 86 | inactive |
| Mecom (MDS1 and EVI1 complex locus) | 3 | 53.4 | 64.5 | inactive |
| Mecom (MDS1 and EVI1 complex locus) | 4 | 107 | 75.5 | inactive |
| Mecom (MDS1 and EVI1 complex locus) | 5 | 106 | 77.9 | inactive |
| Nacc2 | 1 | 53.3 | 49 | inactive |
| Nacc2 | 2 | 67.3 | 64.3 | inactive |
| Nacc2 | 3 | 94.2 | 108 | inactive |
| Slc22a6 | 1 | 35.8 | 54 | inactive |
| Slc22a6 | 2 | 57.4 | 63.5 | inactive |
| Slc22a6 | 3 | 63.9 | 72.1 | inactive |
| Bsg (basigin) | 1 | 104 | 69.3 | inactive |
| Bsg (basigin) | 2 | 88.2 | 107 | inactive |
| Bsg (basigin) | 3 | 54.9 | 62.4 | inactive |
| Atad1 (ATPase family, AAA domain containing 1) | 1 | 142 | 83.8 | active |
| Atad1 (ATPase family, AAA domain containing 1) | 2 | 103 | 78.3 | inactive |
| Atad1 (ATPase family, AAA domain containing 1) | 3 | 170 | 181 | active |
| Prtg (protogenin) | 1 | 64.8 | 49.1 | inactive |
| Prtg (protogenin) | 2 | 75 | 67.4 | inactive |
| Prtg (protogenin) | 3 | 121 | 113 | active |
| Ubxn11 (UBX domain protein 11) | 1 | 60.3 | 58.4 | inactive |
| Ubxn11 (UBX domain protein 11) | 2 | 78.3 | 82.6 | inactive |
| Ubxn11 (UBX domain protein 11) | 3 | 83 | 68.5 | inactive |
| Krt84 (keratin 84) | 1 | 48.1 | 76.5 | inactive |
| Krt84 (keratin 84) | 2 | 91 | 55.2 | inactive |
| Dram2 (DNA-damage regulated autophagy modulator 2) | 1 | 77.5 | 96 | inactive |
| Dram2 (DNA-damage regulated autophagy modulator 2) | 2 | 108 | 68.6 | inactive |
| Dram2 (DNA-damage regulated autophagy modulator 2) | 3 | 87.5 | 62.7 | inactive |
| Anxa10 (annexin A10) | 1 | 89.8 | 89.8 | inactive |
| Anxa10 (annexin A10) | 2 | 164 | 124 | active |
| Anxa10 (annexin A10) | 3 | 51.4 | 82.1 | inactive |
| Itm2b (integral membrane protein 2B) | 1 | 78 | 62.8 | inactive |
| Itm2b (integral membrane protein 2B) | 2 | 69.2 | 58.5 | inactive |
| Itm2b (integral membrane protein 2B) | 3 | 109 | 65.3 | inactive |
| Gm5094 (predicted gene 5094) | 1 | 43.5 | 45.9 | inactive |
| Gm5094 (predicted gene 5094) | 2 | 67.3 | 59.4 | inactive |
| Gm5094 (predicted gene 5094) | 3 | 80.5 | 77.5 | inactive |
| Ankrd48 (ankyrin repeat domain 48) | 1 | 46.2 | 65.1 | inactive |
| Ankrd48 (ankyrin repeat domain 48) | 2 | 71.7 | 90 | inactive |
| Ankrd48 (ankyrin repeat domain 48) | 3 | 96.1 | 45.8 | inactive |
| Usp29 (ubiquitin specific peptidase 29) | 1 | 98.4 | 72.1 | inactive |
| Usp29 (ubiquitin specific peptidase 29) | 2 | 52.5 | 70.5 | inactive |
| Usp29 (ubiquitin specific peptidase 29) | 3 | 85.1 | 68.3 | inactive |
| Fhip2a (FHF complex subunit HOOK interacting protein 2A) | 1 | 94.3 | 62.4 | inactive |
| Fhip2a (FHF complex subunit HOOK interacting protein 2A) | 2 | 84.4 | 102 | inactive |
| Fhip2a (FHF complex subunit HOOK interacting protein 2A) | 3 | 112 | 80.3 | inactive |
| Hbq1b (hemoglobin, theta 1B) | 1 | 94.2 | 78.3 | inactive |
| Hbq1b (hemoglobin, theta 1B) | 2 | 104 | 76.5 | inactive |
| Hbq1b (hemoglobin, theta 1B) | 3 | 75.9 | 65.2 | inactive |
| Cfap299 (cilia and flagella associated protein 299) | 1 | 60.1 | 73.8 | inactive |
| Cfap299 (cilia and flagella associated protein 299) | 2 | 72.1 | 58.9 | inactive |
| Cfap299 (cilia and flagella associated protein 299) | 3 | 62.7 | 82.6 | inactive |
| Lrp11 (low density lipoprotein receptor-related protein 11) | 1 | 75.5 | 86.9 | inactive |
| Lrp11 (low density lipoprotein receptor-related protein 11) | 2 | 76.3 | 75.1 | inactive |
| Lrp11 (low density lipoprotein receptor-related protein 11) | 3 | 74 | 66.6 | inactive |
| Slfn5 (schlafen 5) | 1 | 66 | 38.6 | inactive |
| Slfn5 (schlafen 5) | 2 | 58.6 | 56.4 | inactive |
| Slfn5 (schlafen 5) | 3 | 51.8 | 44.1 | inactive |
| Pcbd2 | 1 | 105 | 108 | inactive |
| Pcbd2 | 2 | 65.3 | 72.6 | inactive |
| Cd72 (CD72 antigen) | 1 | 65 | 71.7 | inactive |
| Cd72 (CD72 antigen) | 2 | 65.1 | 78.5 | inactive |
| Cd72 (CD72 antigen) | 3 | 51.4 | 101 | inactive |
| Dgat2 (diacylglycerol O-acyltransferase 2) | 1 | 124 | 95.3 | active |
| Dgat2 (diacylglycerol O-acyltransferase 2) | 2 | 80.6 | 120 | inactive |
| Dgat2 (diacylglycerol O-acyltransferase 2) | 3 | 126 | 110 | active |
| Ifnlr1 (interferon lambda receptor 1) | 1 | 73.3 | 97.9 | inactive |
| Ifnlr1 (interferon lambda receptor 1) | 2 | 116 | 79.3 | inactive |
| Rnf138rt1 (ring finger protein 138, retrogene 1) | 1 | 107 | 72 | inactive |
| Rnf138rt1 (ring finger protein 138, retrogene 1) | 2 | 52.7 | 71.3 | inactive |
| Rnf138rt1 (ring finger protein 138, retrogene 1) | 3 | 102 | 102 | inactive |
| Wbp1l (WW domain binding protein 1 like) | 1 | 75.1 | 88.1 | inactive |
| Wbp1l (WW domain binding protein 1 like) | 2 | 82.6 | 72.6 | inactive |
| Wbp1l (WW domain binding protein 1 like) | 3 | 148 | 63.4 | active |
| Mybphl (myosin binding protein H-like) | 1 | 80.2 | 80.1 | inactive |
| Mybphl (myosin binding protein H-like) | 2 | 101 | 93.7 | inactive |
| Mybphl (myosin binding protein H-like) | 3 | 65 | 34.2 | inactive |
| Rpl7l1 (ribosomal protein L7-like 1) | 1 | 59.1 | 46 | inactive |
| Rpl7l1 (ribosomal protein L7-like 1) | 2 | 139 | 86.3 | active |
| Rpl7l1 (ribosomal protein L7-like 1) | 3 | 51.9 | 59 | inactive |
| Atp6v0d2 (ATPase, H+ transporting, lysosomal V0 subunit D2) | 1 | 85.2 | 71.6 | inactive |
| Atp6v0d2 (ATPase, H+ transporting, lysosomal V0 subunit D2) | 2 | 71.7 | 86.4 | inactive |
| Atp6v0d2 (ATPase, H+ transporting, lysosomal V0 subunit D2) | 3 | 49.7 | 52 | inactive |
| Foxr2 (forkhead box R2) | 1 | 56.9 | 58 | inactive |
| Foxr2 (forkhead box R2) | 2 | 71.7 | 80.2 | inactive |
| Foxr2 (forkhead box R2) | 3 | 98.9 | 64.1 | inactive |
| Ubxn7 (UBX domain protein 7) | 1 | 67.7 | 32.5 | inactive |
| Ubxn7 (UBX domain protein 7) | 2 | 72.7 | 70.3 | inactive |
| Ubxn7 (UBX domain protein 7) | 3 | 70.3 | 111 | inactive |
| Pde4dip (phosphodiesterase 4D interacting protein (myomegalin)) | 1 | 91.9 | 65.3 | inactive |
| Pde4dip (phosphodiesterase 4D interacting protein (myomegalin)) | 2 | 159 | 114 | active |
| Pde4dip (phosphodiesterase 4D interacting protein (myomegalin)) | 3 | 102 | 107 | inactive |
| Pde4dip (phosphodiesterase 4D interacting protein (myomegalin)) | 4 | 102 | 81.1 | inactive |
| Pde4dip (phosphodiesterase 4D interacting protein (myomegalin)) | 5 | 57.7 | 51.7 | inactive |
| Pde4dip (phosphodiesterase 4D interacting protein (myomegalin)) | 6 | 51.1 | 62.9 | inactive |
| Pde4dip (phosphodiesterase 4D interacting protein (myomegalin)) | 7 | 54.5 | 56.8 | inactive |
| Pde4dip (phosphodiesterase 4D interacting protein (myomegalin)) | 8 | 52.3 | 107 | inactive |
| Pde4dip (phosphodiesterase 4D interacting protein (myomegalin)) | 9 | 99.9 | 104 | inactive |
| Trat1 (T cell receptor associated transmembrane adaptor 1) | 1 | 48.4 | 44.3 | inactive |
| Trat1 (T cell receptor associated transmembrane adaptor 1) | 2 | 75.4 | 87.8 | inactive |
| Trat1 (T cell receptor associated transmembrane adaptor 1) | 3 | 73.9 | 88.1 | inactive |

A portion from the list above:
| gene | siRNA no. | GFP, % of control | viability (ATP), % of control | Outcome |
| --- | --- | --- | --- | --- |
| Mecom (MDS1 and EVI1 complex locus) | 5 | 106 | 77.9 | inactive |
| Nacc2 | 1 | 53.3 | 49 | inactive |
| Nacc2 | 2 | 67.3 | 64.3 | inactive |
| Nacc2 | 3 | 94.2 | 108 | inactive |
| Slc22a6 | 1 | 35.8 | 54 | inactive |
| Slc22a6 | 2 | 57.4 | 63.5 | inactive |
| Slc22a6 | 3 | 63.9 | 72.1 | inactive |
| Bsg (basigin) | 1 | 104 | 69.3 | inactive |
